In doi:10.1101/2025.03.14.642698 one finds binding data, which are given here for two molecules.

Chains of the proteins cited; added tags and fusions are not shown. Lines headed by an entry give the natural chain unless they say otherwise; changes in a name come on top.
UniProt P25587: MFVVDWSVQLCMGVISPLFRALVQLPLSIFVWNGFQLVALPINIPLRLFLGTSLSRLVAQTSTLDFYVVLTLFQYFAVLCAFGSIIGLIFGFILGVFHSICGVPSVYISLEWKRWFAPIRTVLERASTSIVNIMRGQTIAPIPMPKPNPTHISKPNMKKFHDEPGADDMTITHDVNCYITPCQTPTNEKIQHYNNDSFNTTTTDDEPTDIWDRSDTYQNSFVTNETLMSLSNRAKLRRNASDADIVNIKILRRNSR

The target in this assay is Ldb16 ΔH-FLAG, genomically expressed (S. cerevisiae) (UniProt P25587). The assay can be described thus: co-IP.

Results are given in words; binding and its absence hold for the method and conditions named. In cells and extracts the contact can be indirect. Binding can be weak; no strength is given. Sequences can lack the tags named with a protein.

B1: Ldo16-HA, endogenously tagged (protein, UniProt P40219 1-148)
chain: MVSTATFFFFVYLTLFVVIGFFSSLFIIPLLGISFVFAIGVVSFGFCSNMSFKMAQLIYVRADAFLKKVLDKMALQTQPAQLQEPQEPLSTLRPVSNPTIPSPLRQTARPSKFVTEEDVIFEPVSAQSAIARSLETTANKAGNKFQLS
As to B1, the binding entry was “binds”.

B2: Ldo45-HA, endogenously tagged (protein, UniProt P40218 1-412)
chain: MAARNRRKNNKKKSLLVTSAAQEKNATYVLVAEELHKKTIDLNMGTETPLTENHENPIPAKEFKHQQKLEPIDEHDDGEDELSIKFKSMTKSSGPITEAEVQKLLLSYAFTSAAIQEDENEKESRHYPIKPPSPSASSLSAYFQSFVEKCKQVFYNFSLQTVEKLNALQNSLYEVFWIIFIYLNYWFPNVGDYVSNTFGQQDSIIIRISLSKSHFRALREKSSQKVQQAVKNIYFCFQEKPYLTAFKVSFAIGLVIPCSLLFLIMVSTATFFFFVYLTLFVVIGFFSSLFIIPLLGISFVFAIGVVSFGFCSNMSFKMAQLIYVRADAFLKKVLDKMALQTQPAQLQEPQEPLSTLRPVSNPTIPSPLRQTARPSKFVTEEDVIFEPVSAQSAIARSLETTANKAGNKFQLS
For the molecule B2, the binding entry is on record as “binds”.
